The other results are listed elsewhere or left out.
Columns and labels:
Assay in all cases: glycan array binding signal (z-score within array); higher = stronger binding
Conditions in all cases: glycan notation: IUPAC condensed, linker removed
GlcNAc(b1-3)Gal(b1-4)Glc = biological target: GlcNAc(b1-3)Gal(b1-4)Glc
Procedure, shortened: (§1)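 The Consortium for Functional Glycomics database supplied 3228 glycan arrays, of which those lacking an available protein sequence were dropped. The binding signal, a within-array Z-score, was averaged across arrays of the same protein sequence and across linkers. Negative scores can be read as non-binding.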

[1] = biological target: GlcNAc(b1-3)Gal(b1-4)GlcNAc
Procedure, shortened: as §1

[2] = biological target: GlcNAc(b1-3)Gal(b1-4)GlcNAc(b1-2)Man(a1-3)[GlcNAc(b1-3)Gal(b1-4)GlcNAc(b1-2)Man(a1-6)]Man(b1-4)GlcNAc(b1-4)GlcNAc
Procedure, shortened: as §1

[3] = biological target: GlcNAc(b1-3)Gal(b1-4)GlcNAc(b1-2)Man(a1-3)[GlcNAc(b1-3)Gal(b1-4)GlcNAc(b1-2)Man(a1-6)]Man(b1-4)GlcNAc(b1-4)[Fuc(a1-6)]GlcNAc
Procedure, shortened: as §1

[4] = biological target: GlcNAc(b1-3)Gal(b1-4)GlcNAc(b1-2)[GlcNAc(b1-3)Gal(b1-4)GlcNAc(b1-6)]Man(a1-6)[GlcNAc(b1-3)Gal(b1-4)GlcNAc(b1-2)Man(a1-3)]Man(b1-4)GlcNAc(b1-4)GlcNAc
Procedure, shortened: as §1

[5] = biological target: GlcNAc(b1-3)Gal(b1-4)GlcNAc(b1-3)Gal(b1-4)GlcNAc
Procedure, shortened: as §1

[6] = biological target: GlcNAc(b1-3)Gal(b1-4)GlcNAc(b1-3)Gal(b1-4)GlcNAc(b1-2)Man(a1-3)[GlcNAc(b1-3)Gal(b1-4)GlcNAc(b1-3)Gal(b1-4)GlcNAc(b1-2)Man(a1-6)]Man(b1-4)GlcNAc(b1-4)GlcNAc
Procedure, shortened: as §1

[7] = biological target: GlcNAc(b1-3)Gal(b1-4)GlcNAc(b1-3)Gal(b1-4)GlcNAc(b1-2)Man(a1-3)[GlcNAc(b1-3)Gal(b1-4)GlcNAc(b1-3)Gal(b1-4)GlcNAc(b1-2)Man(a1-6)]Man(b1-4)GlcNAc(b1-4)[Fuc(a1-6)]GlcNAc
Procedure, shortened: as §1

[8] = biological target: GlcNAc(b1-3)Gal(b1-4)GlcNAc(b1-3)Gal(b1-4)GlcNAc(b1-2)[GlcNAc(b1-3)Gal(b1-4)GlcNAc(b1-3)Gal(b1-4)GlcNAc(b1-6)]Man(a1-6)[GlcNAc(b1-3)Gal(b1-4)GlcNAc(b1-3)Gal(b1-4)GlcNAc(b1-2)Man(a1-3)]Man(b1-4)GlcNAc(b1-4)[Fuc(a1-6)]GlcNAc
Procedure, shortened: as §1

[9] = biological target: GlcNAc(b1-3)Gal(b1-4)GlcNAc(b1-3)Gal(b1-4)GlcNAc(b1-3)Gal(b1-4)GlcNAc(b1-2)Man(a1-3)[GlcNAc(b1-3)Gal(b1-4)GlcNAc(b1-3)Gal(b1-4)GlcNAc(b1-3)Gal(b1-4)GlcNAc(b1-2)Man(a1-6)]Man(b1-4)GlcNAc(b1-4)GlcNAc
Procedure, shortened: as §1

[10] = biological target: GlcNAc(b1-3)Gal(b1-4)GlcNAc(b1-3)Gal(b1-4)GlcNAc(b1-3)Gal(b1-4)GlcNAc(b1-2)Man(a1-3)[GlcNAc(b1-3)Gal(b1-4)GlcNAc(b1-3)Gal(b1-4)GlcNAc(b1-3)Gal(b1-4)GlcNAc(b1-2)Man(a1-6)]Man(b1-4)GlcNAc(b1-4)[Fuc(a1-6)]GlcNAc
Procedure, shortened: as §1

[11] = biological target: GlcNAc(b1-3)Gal(b1-4)GlcNAc(b1-3)Gal(b1-4)GlcNAc(b1-3)Gal(b1-4)GlcNAc(b1-2)[GlcNAc(b1-3)Gal(b1-4)GlcNAc(b1-3)Gal(b1-4)GlcNAc(b1-3)Gal(b1-4)GlcNAc(b1-6)]Man(a1-6)[GlcNAc(b1-3)Gal(b1-4)GlcNAc(b1-3)Gal(b1-4)GlcNAc(b1-3)Gal(b1-4)GlcNAc(b1-2)Man(a1-3)]Man(b1-4)GlcNAc(b1-4)[Fuc(a1-6)]GlcNAc
Procedure, shortened: as §1

[12] = biological target: GlcNAc(b1-3)Gal(b1-4)GlcNAc(b1-3)Gal(b1-4)GlcNAc(b1-3)Gal(b1-4)GlcNAc(b1-3)Gal(b1-4)GlcNAc(b1-2)Man(a1-3)[GlcNAc(b1-3)Gal(b1-4)GlcNAc(b1-3)Gal(b1-4)GlcNAc(b1-3)Gal(b1-4)GlcNAc(b1-3)Gal(b1-4)GlcNAc(b1-2)Man(a1-6)]Man(b1-4)GlcNAc(b1-4)GlcNAc
Procedure, shortened: as §1

[13] = biological target: GlcNAc(b1-3)Gal(b1-4)GlcNAc(b1-3)Gal(b1-4)GlcNAc(b1-3)Gal(b1-4)GlcNAc(b1-3)Gal(b1-4)GlcNAc(b1-2)Man(a1-3)[GlcNAc(b1-3)Gal(b1-4)GlcNAc(b1-3)Gal(b1-4)GlcNAc(b1-3)Gal(b1-4)GlcNAc(b1-3)Gal(b1-4)GlcNAc(b1-2)Man(a1-6)]Man(b1-4)GlcNAc(b1-4)[Fuc(a1-6)]GlcNAc
Procedure, shortened: as §1

[14] = biological target: GlcNAc(b1-3)Gal(b1-4)GlcNAc(b1-3)Gal(b1-4)GlcNAc(b1-3)Gal(b1-4)GlcNAc(b1-3)Gal(b1-4)GlcNAc(b1-2)[GlcNAc(b1-3)Gal(b1-4)GlcNAc(b1-3)Gal(b1-4)GlcNAc(b1-3)Gal(b1-4)GlcNAc(b1-3)Gal(b1-4)GlcNAc(b1-6)]Man(a1-6)[GlcNAc(b1-3)Gal(b1-4)GlcNAc(b1-3)Gal(b1-4)GlcNAc(b1-3)Gal(b1-4)GlcNAc(b1-3)Gal(b1-4)GlcNAc(b1-2)Man(a1-3)]Man(b1-4)GlcNAc(b1-4)[Fuc(a1-6)]GlcNAc
Procedure, shortened: as §1

[15] = biological target: GlcNAc(b1-3)Gal(b1-4)GlcNAc(b1-3)Gal(b1-4)GlcNAc(b1-3)GalNAc
Procedure, shortened: as §1

[16] = biological target: GlcNAc(b1-3)Gal(b1-4)GlcNAc(b1-3)GalNAc
Procedure, shortened: as §1

[17] = biological target: GlcNAc(b1-3)Gal(b1-4)GlcNAc(b1-3)[GlcNAc(b1-3)Gal(b1-4)GlcNAc(b1-3)]GalNAc
Procedure, shortened: as §1

[18] = biological target: GlcNAc(b1-3)Gal(b1-4)GlcNAc(b1-6)[Gal(b1-3)]GalNAc
Procedure, shortened: as §1

[19] = biological target: GlcNAc(b1-3)Gal(b1-4)GlcNAc(b1-6)[GlcNAc(b1-3)Gal(b1-3)]GalNAc
Procedure, shortened: as §1

[20] = biological target: GlcNAc(b1-3)Gal(b1-4)GlcNAc(b1-6)[GlcNAc(b1-3)]Gal(b1-4)GlcNAc
Procedure, shortened: as §1

GlcNAc(b1-3)GalNAc = biological target: GlcNAc(b1-3)GalNAc
Procedure, shortened: as §1

GlcNAc(b1-3)Man = biological target: GlcNAc(b1-3)Man
Procedure, shortened: as §1

[21] = biological target: GlcNAc(b1-3)[GlcNAc(b1-4)][GlcNAc(b1-6)]GlcNAc
Procedure, shortened: as §1

[22] = biological target: GlcNAc(b1-3)[GlcNAc(b1-6)]Gal(b1-4)GlcNAc
Procedure, shortened: as §1

[23] = biological target: GlcNAc(b1-3)[GlcNAc(b1-6)]GalNAc
Procedure, shortened: as §1

[24] = biological target: GlcNAc(b1-4)Gal(b1-4)GlcNAc
Procedure, shortened: as §1

Binder: KISKRILTGKK [NK11 (Sus scrofa)]
- glycan array binding signal (z-score) (GlcNAc(b1-3)Gal(b1-4)Glc): -0.044
- glycan array binding signal (z-score) [1]: -0.743
- glycan array binding signal (z-score) [2]: 0.18
- glycan array binding signal (z-score) [3]: 1.05
- glycan array binding signal (z-score) [4]: -0.711
- glycan array binding signal (z-score) [5]: -0.783
- glycan array binding signal (z-score) [6]: 1.86
- glycan array binding signal (z-score) [7]: 1.97
- glycan array binding signal (z-score) [8]: 2.97
- glycan array binding signal (z-score) [9]: 1.4
- glycan array binding signal (z-score) [10]: 2.29
- glycan array binding signal (z-score) [11]: 2.73
- glycan array binding signal (z-score) [12]: 1.84
- glycan array binding signal (z-score) [13]: 0.231
- glycan array binding signal (z-score) [14]: 2.27
- glycan array binding signal (z-score) [15]: 0.348
- glycan array binding signal (z-score) [16]: 2.4
- glycan array binding signal (z-score) [17]: 1.74
- glycan array binding signal (z-score) [18]: 0.245
- glycan array binding signal (z-score) [19]: 0.213
- glycan array binding signal (z-score) [20]: -0.79
- glycan array binding signal (z-score) (GlcNAc(b1-3)GalNAc): -1.23
- glycan array binding signal (z-score) (GlcNAc(b1-3)Man): 0.023
- glycan array binding signal (z-score) [21]: -1.2
- glycan array binding signal (z-score) [22]: -0.439
- glycan array binding signal (z-score) [23]: -0.962
- glycan array binding signal (z-score) [24]: -0.072

Source: the supplement of paper PMC8728848
